According to US8158586B2, “Inhibitors of protein kinases and uses thereof” (priority 2005, dated 2012):
At least one compound was matched to its structure with a doubt left. Residues, ends and D or L forms follow the SMILES beside them. *: point of attachment. PNA(A) = NCCN(CC(=O)*)C(=O)Cn1cnc2c(N)ncnc21

By UniProt entry, the sequences of proteins in these tests, tags left out. Where a name states a change or a piece, a line headed by the entry shows the natural chain unless it says otherwise.
UniProt P31749: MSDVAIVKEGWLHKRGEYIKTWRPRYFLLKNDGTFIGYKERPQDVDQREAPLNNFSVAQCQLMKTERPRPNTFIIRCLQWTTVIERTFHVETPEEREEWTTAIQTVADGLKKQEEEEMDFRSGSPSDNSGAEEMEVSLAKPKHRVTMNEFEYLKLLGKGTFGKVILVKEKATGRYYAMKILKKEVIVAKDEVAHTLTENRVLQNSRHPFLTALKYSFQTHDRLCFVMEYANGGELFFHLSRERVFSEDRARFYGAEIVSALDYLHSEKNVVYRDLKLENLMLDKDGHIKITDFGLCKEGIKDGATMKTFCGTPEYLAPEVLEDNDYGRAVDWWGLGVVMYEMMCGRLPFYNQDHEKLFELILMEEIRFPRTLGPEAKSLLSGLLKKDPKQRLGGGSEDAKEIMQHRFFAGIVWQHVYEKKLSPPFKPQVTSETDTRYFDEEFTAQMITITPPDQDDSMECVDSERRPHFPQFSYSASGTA

Target: Akt/PKB (Homo sapiens, UniProt P31749)
Test: Luminescence Kinase Glo assay, Akt/PKB
Type: biochemical
Conditions: 150 μM
Experimental: The ability of the PKI compounds to inhibit PKA, CDK2, Akt/PKB, MAPKp38 and CK2a2 protein kinases was assessed using the Luminescence Kinase Glo® Kit (Promega V6711) according to the manufacturer's instructions. In brief the protocol was as follows:
All kinases were prepared in their respective 1× buffers. 20 μL of […] reaction buffer was added to each well. 10 μL of PKI compound and 10 μL of the test kinase solution were added followed by 10 μL of the Reaction Solution (containing activators, ATP and substrate). The reactions were incubated at 30° C. for 30 min and then 50 μL of Kinase-Glo® was added. Luminescence was measured after 10-15 min on a Galaxy reader.

Structure (SMILES): CC(=O)N[C@@H](Cc1ccccc1)C(=O)N[C@@H](CCCNC(=N)N)C(=O)N[C@@H](CCCNC(=N)N)C(=O)N[C@@H](CCCCNC(=O)CN(CCN)C(=O)Cn1cnc2c(N)ncnc21)C(=O)N[C@@H](Cc1ccccc1)C(=O)N[C@@H](CCCNC(=N)N)C(=O)N[C@@H](CC(C)C)C(=O)O [Compound 3] (Ac-FRRK(PNA(A))FRL-OH; N-terminus and C-terminus assumed)
- inhibitory activity toward Akt/PKB: consistent inhibitory activity
